Measurements: article PMC10951710

Molecular target: T1, MKK2-TurboID-Hisx8 fusion protein (mitogen-activated protein kinase kinase 2 fused to TurboID) (Arabidopsis thaliana) (UniProt Q9S7U9)
T1 sequence: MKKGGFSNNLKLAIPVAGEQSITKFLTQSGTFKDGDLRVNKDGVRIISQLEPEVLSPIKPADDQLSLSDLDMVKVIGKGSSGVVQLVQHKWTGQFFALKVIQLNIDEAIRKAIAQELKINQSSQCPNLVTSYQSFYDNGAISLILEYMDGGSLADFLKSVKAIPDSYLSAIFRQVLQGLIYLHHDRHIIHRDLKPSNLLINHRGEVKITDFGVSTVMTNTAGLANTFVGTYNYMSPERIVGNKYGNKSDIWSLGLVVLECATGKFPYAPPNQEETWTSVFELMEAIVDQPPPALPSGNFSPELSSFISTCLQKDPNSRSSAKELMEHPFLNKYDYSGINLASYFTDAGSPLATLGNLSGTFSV
Test: proximity labelling; in planta TurboID labelling in MKK1-ID or MKK2-ID transgenic Arabidopsis against TurboID-only (ID) plants; 150 uM biotin and 5 uM estradiol in the medium, 5 min wind of 4 m/sec; denaturing extraction, streptavidin enrichment of biotinylproteins and biotinylpeptides, LC-MS/MS, iBAQ quantitation; hits at log2-ratio >= 1.58 and BH-FDR <= 0.05

- binding: binds
B1: CAP-binding protein 20 (ATCBP20) (protein, UniProt Q9XFD1 1-257)
chain: MASLFKEQAKLSAYRDRRFSGTQEEFDEALRASTTVYIGNVSFYTTEEQLYELFSRAGEIKKIIMGLDKNTKTPCGFCFVLFYSREDTEDAVKYISGTILDDRPIRVDFDWGFQEGRQWGRGRSGGQVRDEYRTDYDPARGGYGKLVQKELEAQRQLVDYGTGSLGAYPQAAPTNYGNGRRGGGNYGQGGQNRHGRGDYHRKRQRDDDRYGRDNSRRNTDHESRRDTDSDMRPEKNPRFRESGDSDDDGEDDRKRRS

- binding: binds
B2: SNF7 family protein (VPS46.2) (protein, UniProt Q9SSM4 1-203)
chain: MGNTDKLMNQIFDLKFTSKSLQRQSRKCEKEEKAEKLKVKKAIEKGNMDGARIYAENAIRKRSEQMNYLRLASRLDAVVARLDTQAKMTTITKSMTNIVKSLESSLATGNLQKMSETMDSFEKQFVNMEVQAEFMENAMAGSTSLSTPEGEVNSLMQQVADDYGLEVSVGLPQPAGHAIPTKTEEKVDEDDLSRRLAELKARG

- binding: binds
B3: A member of the Arabidopsis LIM proteins: a family of actin bundlers with distinct expression patterns (WLIM2A) (protein, UniProt O04193 1-200)
chain: MSFTGTQQKCRACEKTVYPVELLSADGISYHKACFKCSHCKSRLQLSNYSSMEGVVYCRPHFEQLFKESGSFSKNFQSPAKPLTDKPTPELNRTPSRLAGMFSGTQDKCATCTKTVYPIEKVTVESQCYHKSCFKCSHGGCPISPSNYAALEGILYCKHHFAQLFKEKGSYNHLIKSASIKRATAAATAAAAAVAAVPES

- binding: binds
B4: SWAP (Suppressor-of-White-APricot)/surp domain-containing protein (TGH) (protein, UniProt Q8GXN9 1-930)
chain: MGSDEEDFVFHGTPIEREEEIASRKKKAVAGASGNLRTLPAWKQEVTDEEGRRRFHGAFTGGYSAGYYNTVGSKEGWAPQSFTSSRQNRAGARKQSISDFLDEDEKADMEGKSLSASSQFDTFGFTAAEHSRKHAEKEQHERPSAIPGPVPDELVAPVSESIGVKLLLKMGWRRGHSIKEVRASSDARREARKAFLAFYTDENTKETPDSLVSETEVETSLGEDIKISESTPVYVLNPKQDLHGLGYDPFKHAPEFREKKRSRMSANKEVGFRKPLSMKESLFGPKSGKIAPGFGIGALEELDVEDEDVYAGYDFDQTYVIEDEQPARQSNDNRLRLTSKEHDVLPGFGAAKNSDYSMERFNPPIIPKDFVARHKFSGPLEAETKPTVSAPPEVPPPADNNLKLLIEGFATFVSRCGKLYEDLSREKNQSNQLFDFLREGNGHDYYARRLWEEQQKRKDQSKLTLDVKVSPTVQKMTAETRGSLLGEKPLQRSLKETDTSASSGGSFQFPTNLSDTFTKSASSQEAADAVKPFKDDPAKQERFEQFLKEKYKGGLRTTDSNRVNSMSESARAQERLDFEAAAEAIEKGKAYKEVRRATEQPLDFLAGGLQFTSGGTEQIKDTGVVDMKSSKTYPKREEFQWRPSPLLCKRFDLPDPFMGKLPPAPRARNKMDSLVFLPDTVKAASARQVSESQVPKKETSIEEPEVEVEVENVERPVDLYKAIFSDDSEDDEDQPMNGKIQEGQEKKNEAAATTLNRLIAGDFLESLGKELGFEVPMEEEIKSRSKPEDSSDKRLDRPGLKEKVEEKTSSLTLGSEEEKSRKKREKSPGKRSGGNDLSSSESSGDERRRKRYNKKDRHRNDSESDSSSDYHSRDKQGSRSRSKRRESSREKRSSHKKHSKHRRTKKSSSSRYSSDEEQKESRREKKRRRD

- binding: binds
B5: AUG1, likely to be in an augmin-like complex with AUG3 (ATAUG1) (protein, UniProt F4IK01 1-299)
chain: MSDVTGDLAAVSEAKGGSDAARISEVKAWLTSQFEAVGKEVPNFEYTHRSITHLYNLATASQAKSQAATIVANDFRLKASEYRAQAARIREILESAGMSQESLPSNVVSSAQVLANVANLLNIRDTELSSFLVAMGDISLRKTGVEEKRAKAQKESNALLDYTRKAIQRLTYLKKILAQLEDDVVPCESQMENWKTNLEVMAVKEEQYIQQYKKYEQMLLNRVGYTPKISHRELVEMAEHRKELDKMTKPVLDTLRSYQDLPPDKALAALAIEDKKRQFTAAEKYLEEVLQSALETNDE

- binding: binds
B6: N-terminal nucleophile aminohydrolases (Ntn hydrolases) superfamily protein (PBF1) (protein, UniProt P42742 1-223)
chain: MTKQHANWSPYDNNGGTCVAIAGSDYCVIAADTRMSTGYSILSRDYSKIHKLADRAVLSSSGFQADVKALQKVLKSRHLIYQHQHNKQMSCPAMAQLLSNTLYFKRFFPYYAFNVLGGLDEEGKGCVFTYDAVGSYERVGYGAQGSGSTLIMPFLDNQLKSPSPLLLPKQDSNTPLSEAEAVDLVKTVFASATERDIYTGDKLEIMILKADGIKTELMDLRKD

- binding: binds
B7: GCIP-interacting family protein (ATSYF2) (protein, UniProt Q8LB80 1-298)
chain: MVSERRVHPDCINASNPYHECVEYCFKKIAEAKARFEKQNTGLAKVHEQTREPLDDKRIEEDSSEEEEEEEDNQEPQVDVTQLTGRQKKLFELRLKMNEARKSNQTDVGSEKKKMEAPTETKGISKQKWLEGRKKKIGKLLDANGLDMTQAYMLDTQEAAESKYKKWEKEPTPAGWDVFNQKTLYNAYKKRTKNIQVDLEEYNRMRAADPEFYREASSLQYGKAPKTSQDKIDKMAKELLDREQKRQEFSRRRKFREEKDIDSINDRNEHFNKKIERAFGKYTLEIKNNLERGTALPD

- binding: binds
B8: Pleiotropic regulatory locus 1 (PRL1) (protein, UniProt Q42384 1-486)
chain: MPAPTTEIEPIEAQSLKKLSLKSLKRSLELFSPVHGQFPPPDPEAKQIRLSHKMKVAFGGVEPVVSQPPRQPDRINEQPGPSNALSLAAPEGSKSTQKGATESAIVVGPTLLRPILPKGLNYTGSSGKSTTIIPANVSSYQRNLSTAALMERIPSRWPRPEWHAPWKNYRVIQGHLGWVRSVAFDPSNEWFCTGSADRTIKIWDVATGVLKLTLTGHIEQVRGLAVSNRHTYMFSAGDDKQVKCWDLEQNKVIRSYHGHLSGVYCLALHPTLDVLLTGGRDSVCRVWDIRTKMQIFALSGHDNTVCSVFTRPTDPQVVTGSHDTTIKFWDLRYGKTMSTLTHHKKSVRAMTLHPKENAFASASADNTKKFSLPKGEFCHNMLSQQKTIINAMAVNEDGVMVTGGDNGSIWFWDWKSGHSFQQSETIVQPGSLESEAGIYAACYDNTGSRLVTCEADKTIKMWKEDENATPETHPINFKPPKEIRRF

- binding: binds
B9: BEL1-like homeodomain 4 (BLH4) (protein, UniProt Q94KL5 1-627)
chain: MGLATTTSSMSQDYHHHQGIFSFSNGFHRSSSTTHQEEVDESAVVSGAQIPVYETAGMLSEMFAYPGGGGGGSGGEILDQSTKQLLEQQNRHNNNNNSTLHMLLPNHHQGFAFTDENTMQPQQQQHFTWPSSSSDHHQNRDMIGTVHVEGGKGLSLSLSSSLAAAKAEEYRSIYCAAVDGTSSSSNASAHHHQFNQFKNLLLENSSSQHHHHQVVGHFGSSSSSPMAASSSIGGIYTLRNSKYTKPAQELLEEFCSVGRGHFKKNKLSRNNSNPNTTGGGGGGGSSSSAGTANDSPPLSPADRIEHQRRKVKLLSMLEEVDRRYNHYCEQMQMVVNSFDQVMGYGAAVPYTTLAQKAMSRHFRCLKDAVAVQLKRSCELLGDKEAAGAASSGLTKGETPRLRLLEQSLRQQRAFHHMGMMEQEAWRPQRGLPERSVNILRAWLFEHFLNPYPSDADKHLLARQTGLSRNQVSNWFINARVRLWKPMVEEMYQQEAKEREEAEEENENQQQQRRQQQTNNNDTKPNNNENNFTVITAQTPTTMTSTHHENDSSFLSSVAAASHGGSDAFTVATCQQDVSDFHVDGDGVNVIRFGTKQTGDVSLTLGLRHSGNIPDKNTSFSVRDFGDF

- binding: binds
B10: Oligouridylate-binding protein 1A (UBP1A) (protein, UniProt Q9SYG4 1-426)
chain: MQNQRLIKQQQQQQQQQHQQAMIQQAMMQQHPSLYHPGVMAPPQMEPLPSGNLPPGFDPTTCRSVYAGNIHTQVTEILLQEIFASTGPIESCKLIRKDKSSYGFVHYFDRRCASMAIMTLNGRHIFGQPMKVNWAYATGQREDTSSHFNIFVGDLSPEVTDAALFDSFSAFNSCSDARVMWDQKTGRSRGFGFVSFRNQQDAQTAINEMNGKWVSSRQIRCNWATKGATFGEDKHSSDGKSVVELTNGSSEDGRELSNEDAPENNPQFTTVYVGNLSPEVTQLDLHRLFYTLGAGVIEEVRVQRDKGFGFVRYNTHDEAALAIQMGNAQPFLFSRQIRCSWGNKPTPSGTASNPLPPPAPASVPSLSAMDLLAYERQLALAKMHPQAQHSLRQAGLGVNVAGGTAAMYDGGYQNVAAAHQQLMYYQ

- binding: binds
B11: Alfin-like 1 (AL1) (protein, UniProt Q9FFF5 1-241)
chain: MAAESSNPRTVEEIFKDFSGRRSGFLRALSVDVDKFYSLCDPEMENLCLYGHPNGTWEVNLPAEEVPPELPEPALGINFARDGMQRKDWLSLVAVHSDCWLLSVSSYFGARLNRNERKRLFSLINDLPTLFEVVTGRKPIKDGKPSMDLGSKSRNGVKRSIEGQTKSTPKLMEESYEDEDDEHGDTLCGSCGGNYTNDEFWICCDVCERWYHGKCVKITPAKAESIKQYKCPSCCTKKGRQ

- binding: binds
B12: One of the zinc finger-containing glycine-rich RNA-binding proteins involved in cold tolerance (ATRZ-1C) (protein, UniProt Q8RWN5 1-310)
chain: MAAKEGSRIFVGGLSPEVTDRDLERAFSRFGDILDCQIMLERDTGRSRGFGFITFADRRAMDESIREMHGRDFGDRVISVNRAEPKLGRDDGESHGSRGGRDSGYSIAGKGSFGGGGGGGGRVGEDECFKCGRVGHWARDCPSAGGGRGGPVGGFSSRASAYGGSDGRVDRYADRDRYVDRERYIDDRYDGAARYGARDRFDSREAYIPRDRYASDRYAAPADRFAGGDRYSRGSDRYPPGSYDKARSFERDIAPSAGSDRYGGGRAGGPIRGGGEEGRGFRSRAGAPYERPSRSGGGGAYPSSSTFDRY

- binding: binds
B13: Ankyrin repeat family protein/BTB/POZ domain-containing protein (BOP2) (protein, UniProt Q9ZVC2 1-491)
chain: MSNLEESLRSLSLDFLNLLINGQAFSDVTFSVEGRLVHAHRCILAARSLFFRKFFCGTDSPQPVTGIDPTQHGSVPASPTRGSTAPAGIIPVNSVGYEVFLLLLQFLYSGQVSIVPQKHEPRPNCGERGCWHTHCSAAVDLALDTLAASRYFGVEQLALLTQKQLASMVEKASIEDVMKVLIASRKQDMHQLWTTCSHLVAKSGLPPEILAKHLPIDVVTKIEELRLKSSIARRSLMPHNHHHDLSVAQDLEDQKIRRMRRALDSSDVELVKLMVMGEGLNLDESLALHYAVESCSREVVKALLELGAADVNYPAGPAGKTPLHIAAEMVSPDMVAVLLDHHADPNVRTVGGITPLDILRTLTSDFLFKGAVPGLTHIEPNKLRLCLELVQSAAMVISREEGNNSNNQNNDNNTGIYPHMNEEHNSGSSGGSNNNLDSRLVYLNLGAGTGQMGPGRDQGDDHNSQREGMSRHHHHHQDPSTMYHHHHQHHF

Results are given in words; binding and its absence hold for the method and conditions named. Binding seen in cells or lysates may run through a third protein. These calls come from enrichment with a bait or labelling near it, and not all partners need be listed. Tags and fused reporters may be left off the sequences shown. One block for each binder: values may come before it.
